Test results taken from PubChem BioAssay AID1347423 (Functional Genomics Laboratory (NCATS/FGL), 2020).
About 210 (0.4%) of roughly 52,000 sequences were called active.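 The calls were made as follows: active = gene whose silencing raises cell survival under the drug, median off-target-corrected z-score across its silencing RNAs 2 or more; inactive = the rest.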 Some of the results follow.

Test: Resistance to Poly (ADP-Ribose) Polymerase inhibitor: Gene Identification via Genome-wide siRNA Screen
Conditions: mouse BRCA2 R2336H ES cells, olaparib, CellTiter-Glo viability; active compounds read high
Summary of the method: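 Genome-wide siRNA screen (3 siRNAs/gene, 20 nM) in mouse ES cells carrying hypomorphic BRCA2 R2336H; olaparib 500 nM added 48 h post-transfection, CellTiter-Glo viability 72 h later. Normalized to plate-median negative control; MAD z-scores, gene median, seed-adjusted.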
In the case of CCAUAUGGUGGUCACGACATT against Tm7sf4, the z-score is reported as inactive: -1.71.
With GCUAUACCAAGUGGAUAGUTT against Prkaa1 the z-score was inactive: -0.0549.
With GCUUAAGCGACUUCAUUGCTT against Ian3 the z-score was inactive: 0.511.
With “CGAGAAUGUAGAAAGUGGGTT against C330043M08” the z-score was inactive: -0.413.
For “GCUCACAUGUUUUAGGUGATT against 1200014M14Rik”, the z-score was inactive: 0.545.
With GGGACUCCUUUAAAUUUCUTT against Pipox the z-score was inactive: -0.848.
In the case of “GCAUCACUAGAUUUGGGCATT against 4931414L13Rik”, the z-score is reported as inactive: -0.277.
For GGCACACACCAUAUGGUAATT against Ldb1, the z-score was inactive: -0.0726.
With CCACUCAUGAAGACGGAAGTT against Abat the z-score was inactive: 0.134.
In the case of GGAAAGAAUCGAUUUAGACTT against Slc5a4a, the z-score is reported as inactive: 0.921.
With GGGAUAGUGUUCCUUAUCUTT against Neu1 the z-score was inactive: 0.539.
With GGAUCUUCUACUAUUGAUATT against Paqr5 the z-score was inactive: 0.662.
With GGAAGAAGCAGGUGAUUAATT against Grb14 the z-score was inactive: -1.16.
With CGACCUAAUGAAGAAUGUCTT against Hmgcr the z-score was inactive: -2.67.
For CGAUUGGUUGUUGUAGACATT against Wbscr21, the z-score was inactive: -0.285.
For “GGCAAAGCUCCAUCAUCUGTT against 1100001A21Rik”, the z-score was inactive: 0.767.
In the case of GGCCAUCUUGACACACAUGTT against Wnt4, the z-score is reported as inactive: -0.887.
For GGUGUGAAGGAGAAGUUCATT against Atp6v1a1, the z-score was inactive: 0.129.
With GGUCAUUCCUGAGUGCAGGTT against Olfr545 the z-score was inactive: -0.966.
In the case of GGGUUAGCCAUAGAAGAAGTT against Auh, the z-score is reported as inactive: -1.86.
In the case of GGCAUGAGGAUACUGAAGGTT against Klra19, the z-score is reported as inactive: 0.813.
For GGCUUAAGUUAGGCAAACUTT against BC011210, the z-score was inactive: -1.5.
In the case of CCCAAAGUGCUUUACAAUGTT against Aard, the z-score is reported as inactive: 0.796.
For GGUAUUUUUCAAGAUUACGTT against Cdkn1b, the z-score was inactive: -0.398.
For GGUCUUUCAAAUACCCAAATT against Rcor1, the z-score was inactive: 1.36.
In the case of GGAGAAAUGCUGAUGUCAATT against Ankrd22, the z-score is reported as inactive: -0.501.
In the case of GCUACCAGGAUAGCGAAACTT against P2rx2, the z-score is reported as inactive: -0.223.
With GGCUCUGCUGGAUAUCAUGTT against Thrap4 the z-score was inactive: 1.5.
In the case of GCAUAGCAGGAAGGCCUUGTT against Htr6, the z-score is reported as inactive: -0.359.
With GGCAGUCUAGCUGAAUCAATT against Tnfsf14 the z-score was inactive: -0.806.
With GCUUAUAAAGUAGUGGUUUTT against Wnt2b the z-score was inactive: -0.213.
With GGAAAAAUUUAGACAGCACTT against Csrp2 the z-score was inactive: 1.12.
In the case of GGGUUCCAAUGAAGAUCUCTT against Nr1i2, the z-score is reported as inactive: 0.72.
For GGUCUAUGGCCCAUAUGAATT against Cspg4, the z-score was inactive: 0.191.
In the case of GGAUGAGUAUGAGAGGAAUTT against Mitc1, the z-score is reported as inactive: 0.717.
For GGAGCCAAAUAUUAGCGCGTT against Mglap, the z-score was inactive: -0.268.
For GGUCAGAUGUAGAAACAGCTT against Dlgap2, the z-score was inactive: -1.03.
With “GGCGAAAGCCUUGAGGUUGTT against 1500010G04Rik” the z-score was inactive: 0.767.
In the case of GGCAGAUAAAGAUGGAGCATT against Ndph, the z-score is reported as inactive: -1.82.
In the case of GUUCCUCCACAUCCUAGACTT against Smr1, the z-score is reported as inactive: -0.287.
With GGAAGAAGAAACUCAAGAGTT against Rnf167 the z-score was inactive: 0.465.
With GCAUUAUGAACCGAAAUGUTT against Olfr1265 the z-score was inactive: -0.28.
In the case of GGUGCUACGAGUUUUAGAATT against Tcfap2c, the z-score is reported as inactive: 1.06.
In the case of GGAUGUUCAUCUAUUUCUUTT against Mja1l, the z-score is reported as inactive: -0.191.
With GGAACGUGCAAUGCUUGUUTT against Adm the z-score was inactive: -0.719.
In the case of GCAGGAACGUGAGGACCAUTT against Snip1, the z-score is reported as inactive: 0.492.
For CCUGUAUUUUACGAUCUUUTT against Vmd2, the z-score was inactive: 1.19.
For GCACUUUGAGAACACUAAUTT against Zfp9, the z-score was inactive: 1.92.
For GGUCAUUCAAUACCAGAUATT against Cd48, the z-score was inactive: -1.56.
With GGAAAGGAACAUAUUUGACTT against Gss the z-score was inactive: 0.767.
With CCUAAUCGAGAAUGAGUUATT against Speer2 the z-score was inactive: 0.464.
In the case of GGCCAACUGUACAAACUCCTT against Tmpit, the z-score is reported as inactive: -1.44.
With CCUAGUGUGUGCUUUUCGGTT against Akr7a5 the z-score was inactive: 1.82.
In the case of GCGAAUUGAACAGUUCUCATT against Cwf19l2, the z-score is reported as inactive: 0.733.
In the case of “GGAAGCUGAAGGUUUGCCATT against 2510001I10Rik”, the z-score is reported as inactive: -0.348.
With GGCUGCACCAGAAACAUUATT against Vezf1 the z-score was inactive: 1.04.
With GGGUACUUCUCAGGAAUAGTT against Nudt5 the z-score was inactive: 0.785.
For “GGAGAUGUUGGACUUCAUGTT against 4930519N16Rik”, the z-score was inactive: -1.17.
With “GGCUAUCUGAUCAAGCCCATT against 0610009F02Rik” the z-score was inactive: -0.647.
With GCUUCUGAUAUAGUCAGCCTT against Ptpro the z-score was inactive: -0.243.
In the case of GGAGCUAUCACUUUUCAUUTT against G0s2, the z-score is reported as inactive: -0.202.
In the case of GGACUUUGAACUACCGAAGTT against Usp54, the z-score is reported as inactive: 1.88.
For GGUAGCAAAUUUCAAUCUUTT against Hipk1, the z-score was inactive: 0.733.
In the case of GCUUACAGCAAGAUCAAGGTT against Pip5k2b, the z-score is reported as inactive: 0.467.
In the case of GGGCUGACCAGUUUGAGUATT against Polr2h, the z-score is reported as inactive: -2.24.
With CCAACUUGUAAUCAAAGGATT against Eif2s2 the z-score was inactive: -1.12.
With GGGAUACUACUUUCUAACATT against Thsd2 the z-score was inactive: 0.147.
With GGUGGUCAACCCUCUGUUCTT against Rpl7a the z-score was inactive: -1.21.
With CCUACAAUUCUAGGUUACGTT against Snx16 the z-score was inactive: -0.928.
With GGACUAUGGCUCAGCACUCTT against Ttyh1 the z-score was inactive: 0.597.
With CCUGACUCGUAUUAAAACATT against Zbtb7 the z-score was inactive: 0.503.
For GGUAACCAUGAUGAUGACATT against D4Ertd89e, the z-score was inactive: 0.176.
In the case of GGAUCUUUCCUGAUUUAUATT against Ggtla1, the z-score is reported as inactive: 1.55.
With GGGCUUCUGCUUCAACAUCTT against 6-Sep the z-score was inactive: 0.657.
For GGUAGAUGGGUUUCAUAAUTT against Gpc2, the z-score was inactive: -0.576.
With GGCGCAACUUGAAACUUACTT against Galnt4 the z-score was inactive: 2.07.
In the case of GGAAAAUGCAUUUCAGACATT against Ugcg, the z-score is reported as inactive: 0.115.
With GGAUGUCGGUGUGAUUUGCTT against Cd163 the z-score was inactive: 1.54.
For GGAGAGAAACUUCAGAGUGTT against Spon2, the z-score was inactive: 1.42.
With “GAUCCCUGGAUUGUGGAGUTT against 2310057N15Rik” the z-score was inactive: 0.96.
For CCACAUGCCUGAGAGAUUCTT against Spp2, the z-score was inactive: 0.787.
In the case of GCGGUAUGUACCUGUGAAATT against Exosc3, the z-score is reported as inactive: -3.15.
In the case of GCGAUUCCUAGAGCUGAGCTT against Git1, the z-score is reported as inactive: 0.465.
With ACUGUUUAGACCCGGUUUCTT against Cd59b the z-score was inactive: 0.132.
In the case of GCAUGUAUAUAGGUAAAACTT against Nedd1, the z-score is reported as inactive: 1.24.
With GGAUUCUUCGCUCCAAUGATT against Pacs1 the z-score was inactive: 1.65.
For GGAGAUCAUGGAGAAAGGCTT against Btbd14b, the z-score was inactive: -0.461.
In the case of GAUUUCAUUAAACAUGUCCTT against Cox8b, the z-score is reported as inactive: -0.165.
In the case of “CCGCUCUGUUUCAAUCCUGTT against 4930417M19Rik”, the z-score is reported as inactive: 1.6.
With GGAUCUUUUGAGAAAGAACTT against Bai3 the z-score was inactive: 0.432.
In the case of GGCAGGAACUUUAUAAGGATT against Xlr4, the z-score is reported as inactive: 0.489.
In the case of GGAUCUAGUCCCUGAUUUGTT against Sdhb, the z-score is reported as inactive: 0.661.
With GGAUGGAACUAUCUGAAUUTT against Slc7a5 the z-score was inactive: 1.76.
With CGCCACGAACUCAAUUCUGTT against Irx4 the z-score was inactive: -0.738.
For GGAAAUCUAAAGGAGACAUTT against Cdo1, the z-score was inactive: 2.9.
For “GCCUCGAGAUAUUCUUUGUTT against A330064G03Rik”, the z-score was inactive: -0.803.
In the case of GCGAGGAAAGAGCACUGUATT against BC055107, the z-score is reported as inactive: 1.11.
In the case of GGACAGAGAAAGGCACAGATT against Clcn3, the z-score is reported as inactive: 0.844.
With GGAUGUGGGUGGAUAUCAUTT against Sit the z-score was inactive: 2.34.
In the case of CCCAUUGUCAUGAUAAGCUTT against Fbln1, the z-score is reported as inactive: 0.608.
In the case of UUUUCCAGUUAGUGACAACTT against Oxct2b, the z-score is reported as inactive: 0.0287.
For “GCUCCAGAUGUCAAAUUAATT against 2310034L04Rik”, the z-score was inactive: 1.03.
For CCAGGAUUACUUACACUCGTT against Flot1, the z-score was inactive: 0.396.
With GCAAGAGUCCACCUUUAGCTT against Gstk1 the z-score was inactive: 1.28.
With GGAUGUGCUUAUGAACAAUTT against Rab38 the z-score was inactive: -0.0251.
For GCUGACAGUAGUUUGAAGATT against Defb1, the z-score was inactive: -0.459.
